Results: PubChem BioAssay AID328 (DTP/NCI, 2004)
The list does not hold the whole screen: it is rich in T/C values a quarter to a half above the control, in often repeated tests (any T/C) and in doses without a T/C. Further doses and runs are listed elsewhere. T/C is the treated group as % of the vehicle group. Some doses have a count of surviving animals in place of a T/C: the source files T/C as zero there, which appears to mark a toxic dose or a test without result, not a measured value. Some doses without a T/C left all or most animals alive at the check, yet need not have been tolerated: the source hardly ever lists a survival T/C far under the control, and the zero likely stands for such cases as well. Survivors were counted at the toxicity check, usually on the fifth day, unless a day is given; later deaths do not show. Schedule codes are those of the source, read here as Q, the interval in days (D) or hours (H), X, the number of doses. Some structures stand for samples that the source files as different forms (salt, stereo form or complex); doses refer to the form tested. Marks such as (2×) count equal records among those shown. Some entries hold several experiments; the results are listed from low to high. For survival time, this PubChem deposit counts one and a half times the control or more as active, and values a quarter to a half above the control carry no call in these data; other NCI protocols may use other cut-offs. Some T/C values carry the count of animals alive at the toxicity check (mostly the fifth day); without a count, all were alive then.

Tested on: BDF1 mice, P388 leukemia ip, median survival T/C
Assay: NCI In Vivo Anticancer Drug Screen. Data for tumor model P388 Leukemia (intraperitoneal) in B6D2F1 (BDF1) mice
Conditions: T/C endpoint: median survival time, higher T/C = longer survival
Summary of the method: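 Steps: implant the tumour, treat one group with compound and another with vehicle, record survival, then divide treated by control.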

[1] = dose: 400.0 mg/kg/injection, schedule: Q04DX003 (ip), vehicle: saline with Tween-80
[2] = dose: 50.0 mg/kg/injection, schedule: Q01DX009 (ip), vehicle: water
[3] = dose: 100.0 mg/kg/injection, schedule: Q01DX009 (ip), vehicle: saline with Tween-80
[4] = dose: 200.0 mg/kg/injection, schedule: Q01DX009 (ip), vehicle: saline with Tween-80
[5] = dose: 50.0 mg/kg/injection, schedule: Q01DX005 (ip), vehicle: saline with Tween-80
[6] = dose: 100.0 mg/kg/injection, schedule: Q01DX009 (ip), vehicle: saline
[7] = dose: 400.0 mg/kg/injection, schedule: Q01DX009 (ip), vehicle: saline
[8] = dose: 50.0 mg/kg/injection, schedule: Q01DX009 (ip), vehicle: Klucel (hydroxypropylcellulose) (HPC)
[9] = dose: 100.0 mg/kg/injection, schedule: Q01DX009 (ip), vehicle: Klucel (hydroxypropylcellulose) (HPC)
[10] = dose: 200.0 mg/kg/injection, schedule: Q01DX009 (ip), vehicle: Klucel (hydroxypropylcellulose) (HPC)
[11] = dose: 400.0 mg/kg/injection, schedule: Q01DX009 (ip), vehicle: saline with Tween-80
[12] = dose: 200.0 mg/kg/injection, schedule: Q04DX003 (ip), vehicle: saline
[13] = dose: 400.0 mg/kg/injection, schedule: Q04DX003 (ip), vehicle: saline
[14] = dose: 300.0 mg/kg/injection, schedule: Q01DX009 (ip), vehicle: saline with Tween-80

`CN(N=O)C(N)=O` was tested, and the T/C (dose: 16.5 mg/kg/injection, schedule: Q04DX003 (ip), vehicle: saline with Tween-80) was 125 % of control, the survivor count (dose: 100.0 mg/kg/injection, schedule: Q04DX003 (ip), vehicle: saline with Tween-80) was 6 of 6 and the survivor count (dose: 200.0 mg/kg/injection, schedule: Q04DX003 (ip), vehicle: saline with Tween-80) was 0 of 6. The survivor count [1] was 3 of 6.

`Clc1nc2nc(Cl)n(Cl)c2nc1Cl` was tested, and the T/C [2] was 134 % of control, the T/C [3] was 127 % of control [5 of 6 alive] and the survivor count [3] was 5 of 6. The survivor count [4] was 2 of 6 and 6 of 6, the survivor count (dose: 300.0 mg/kg/injection, schedule: Q01DX009 (ip), vehicle: water) was 2 of 6 and the survivor count [1] was 4 of 6.

`Cc1ccc(NC(=S)C#N)cc1Cl` was tested, and the survivor count [5] was 3 of 5, the survivor count (dose: 100.0 mg/kg/injection, schedule: Q01DX005 (ip), vehicle: saline with Tween-80) was 0 of 5 and the survivor count (dose: 200.0 mg/kg/injection, schedule: Q01DX005 (ip), vehicle: saline with Tween-80) was 0 of 5.

With `CCOC1=CCCCC1` the T/C [6] was 135 % of control and the T/C [7] was 130 % of control.

`O=C(O)CCC(=O)/C=C1/Nc2ccccc2C1=O` was tested, and the survivor count [1] was 2 of 6.

With `Cc1cc(C)nc(NS(=O)(=O)c2ccc(N=Nc3nc4[nH]c(N)nc(=S)c4[nH]3)cc2)n1` the survivor count (dose: 12.5 mg/kg/injection, schedule: Q01DX009 (ip), vehicle: Klucel (hydroxypropylcellulose) (HPC)) was 6 of 6, the survivor count (dose: 25.0 mg/kg/injection, schedule: Q01DX009 (ip), vehicle: Klucel (hydroxypropylcellulose) (HPC)) was 4 of 6 and the survivor count [8] was 6 of 6. For the same molecule, the survivor count [9] was 5 of 6 and the survivor count [10] was 2 of 6.

For `CCOc1ccn(CC(=O)c2ccc([N+](=O)[O-])o2)c(=O)n1`, the survivor count [4] was 2 of 6.

With `CN(C1=NS(=O)(=O)N=C(N(C)c2ccccc2)O1)c1ccccc1` the T/C [4] was 139 % of control, the T/C (dose: 400.0 mg/kg/injection, schedule: Q01DX009 (ip), vehicle: Klucel (hydroxypropylcellulose) (HPC)) was 132 % of control and the T/C [11] was 145 % of control [5 of 6 alive].

For `CCCCNP(=O)(N1CC1)N1CC1`, the T/C (dose: 18.0 mg/kg/injection, schedule: Q04DX003 (ip), vehicle: saline with Tween-80) was 137 % of control, the survivor count (dose: 100.0 mg/kg/injection, schedule: Q04DX003 (ip), vehicle: saline) was 2 of 6 and the survivor count [12] was 1 of 6. The survivor count [13] was 0 of 6.

In the case of `CNc1cccnc1/C=N/NC(N)=S`, the T/C [4] is reported as 133 % of control and the survivor count [11] is reported as 4 of 6.

In the case of `COc1cc(N(CCCl)CCCl)ccc1/C=N\NC(=O)c1cccnc1`, the T/C [10] is reported as 140 % of control.

`CN(C)c1ccc(C(=C2C=CC(=[N+](C)C)C=C2)c2ccc(N(C)C)cc2)cc1` was tested, and the survivor count (dose: 3.12 mg/kg/injection, schedule: Q01DX009 (ip), vehicle: saline) was 4 of 6, the survivor count (dose: 6.25 mg/kg/injection, schedule: Q04DX003 (ip), vehicle: saline) was 4 of 6 and the survivor count (dose: 100.0 mg/kg/injection, schedule: Q04DX003 (ip), vehicle: alcohol) was 6 of 6. The survivor count (dose: 200.0 mg/kg/injection, schedule: Q04DX003 (ip), vehicle: alcohol) was 2 of 6 and the survivor count (dose: 400.0 mg/kg/injection, schedule: Q04DX003 (ip), vehicle: alcohol) was 0 of 6.

In the case of `CCOC(=O)C(C(=O)OCC)C1c2ccccc2C(=O)N(CCN(C)C)c2ccccc21` (centres undefined), the survivor count [12] is reported as 1 of 6.

For `Cc1c[n+]2ccccc2n1C`, the survivor count (dose: 25.0 mg/kg/injection, schedule: Q01DX009 (ip), vehicle: saline) was 6 of 6, the survivor count (dose: 50.0 mg/kg/injection, schedule: Q01DX009 (ip), vehicle: saline) was 6 of 6 and the survivor count [6] was 0 of 6 and 5 of 6. The survivor count (dose: 200.0 mg/kg/injection, schedule: Q01DX009 (ip), vehicle: saline) was 0 of 6 (2×).

In the case of `CCN(CC)c1cc(Cl)c(C=O)cc1Br`, the survivor count [9] is reported as 6 of 6.

`c1ccc(CNCCN(Cc2ccccc2)Cc2ccccc2)cc1` was tested, and the T/C (dose: 25.0 mg/kg/injection, schedule: Q01DX009 (ip), vehicle: water) was 133 % of control [5 of 6 alive] and the survivor count [2] was 3 of 6.

`CC(=O)Nc1cc2c(cc1[N+](=O)[O-])-c1ccc([N+](=O)[O-])cc1C2` was tested, and the survivor count [8] was 6 of 6, the survivor count [9] was 6 of 6 and the survivor count (dose: 100.0 mg/kg/injection, schedule: Q04DX003 (ip), vehicle: Klucel (hydroxypropylcellulose) (HPC)) was 6 of 6. The survivor count (dose: 200.0 mg/kg/injection, schedule: Q04DX003 (ip), vehicle: Klucel (hydroxypropylcellulose) (HPC)) was 6 of 6 and the survivor count (dose: 400.0 mg/kg/injection, schedule: Q04DX003 (ip), vehicle: Klucel (hydroxypropylcellulose) (HPC)) was 6 of 6.

With `CN(C)c1ccc(Cc2ccc(N(C)C)c(C(O)(c3ccccc3)c3ccccc3)c2)cc1C(O)(c1ccccc1)c1ccccc1` the survivor count (dose: 12.5 mg/kg/injection, schedule: Q01DX005 (ip), vehicle: saline with Tween-80) was 6 of 6, the survivor count (dose: 25.0 mg/kg/injection, schedule: Q01DX005 (ip), vehicle: saline with Tween-80) was 6 of 6 and the survivor count [5] was 6 of 6.

`CCC(=O)N(C)[C@@H](C)C(=O)O[C@H]1CC(=O)N(C)c2cc(cc(OC)c2Cl)C/C(C)=C/C=C[C@@H](OC)[C@@]2(O)C[C@H](OC(=O)N2)[C@@H](C)[C@@H]2O[C@@]12C` was tested, and the T/C (dose: 0.1 micrograms/kg/injection, schedule: Q01DX009 (ip), vehicle: saline) was 137 % of control, the T/C (dose: 0.4 micrograms/kg/injection, schedule: Q01DX009 (ip), vehicle: saline) was 137 % of control and the T/C (dose: 0.8 micrograms/kg/injection, schedule: Q01DX009 (ip), vehicle: saline) was 145 % of control. The T/C (dose: 6.2 micrograms/kg/injection, schedule: Q01DX009 (ip), vehicle: saline) was 125 % of control, the survivor count (dose: 25.0 micrograms/kg/injection, schedule: Q01DX009 (ip), vehicle: saline) was 6 of 6 and the survivor count (dose: 50.0 micrograms/kg/injection, schedule: Q01DX009 (ip), vehicle: saline) was 0 of 6.

In the case of `CCOC(=O)Nc1cc2c(c(N)n1)N=C(CN(C)c1ccccc1)CN2`, the T/C (dose: 25.0 mg/kg/injection, schedule: Q01DX001 (ip), vehicle: Klucel (hydroxypropylcellulose) (HPC)) is reported as 132 % of control and the survivor count (dose: 200.0 mg/kg/injection, schedule: Q01DX001 (ip), vehicle: Klucel (hydroxypropylcellulose) (HPC)) is reported as 3 of 6.

With `Brc1ccc(C[N+]23CN4CN(CN(C4)C2)C3)cc1` the T/C [4] was 125 and 130 % of control, the T/C [14] was 137 % of control and the survivor count [14] was 0 of 6. For the same molecule, the survivor count [7] was 1 of 6 and the survivor count [13] was 0 of 6.

`O=S(=O)(c1ccccc1)N1CN2CCN(C2)C1` was tested, and the T/C [4] was 136 % of control and the T/C [11] was 142 % of control.

In the case of `C=CCCCCCCCCCCCCCCCC` (tested in a mixture with another compound), the T/C (dose: 100.0 mg/kg/injection, schedule: Q01DX009 (ip), vehicle: other) is reported as 128 % of control and the T/C (dose: 200.0 mg/kg/injection, schedule: Q01DX009 (ip), vehicle: other) is reported as 136 % of control.

For `NC(=O)c1ccc(NC(=O)/C=C/C(=O)Nc2ccc(C(N)=O)cn2)nc1`, the survivor count (dose: 2.8 mg/kg/injection, schedule: Q01DX009 (ip), vehicle: saline) was 5 of 6, the survivor count (dose: 11.25 mg/kg/injection, schedule: Q01DX009 (ip), vehicle: saline) was 4 of 6 and the survivor count (dose: 22.5 mg/kg/injection, schedule: Q01DX009 (ip), vehicle: saline) was 6 of 6. For the same molecule, the survivor count (dose: 60.0 mg/kg/injection, schedule: Q04DX003 (ip), vehicle: saline) was 6 of 6.
